Data as given in PubChem BioAssay AID1794845 (National Center for Advancing Translational Sciences (NCATS), 2023).
Screen size: about 6,900 compounds; fewer than 10 were called active. Calls follow the shape of the dose curve; as a rule, active = well fitted curve in the direction sought with a large enough effect; inconclusive = small, poorly fitted or top-dose-only effect, or another doubt; inactive = no such curve, though single readings can be large or run the other way. Some of the results follow.
Also: % of control where 0% means no effect.

By UniProt entry, the sequences of proteins in these tests, tags left out. Where a name states a change or a piece, a line headed by the entry shows the natural chain unless it says otherwise.
UniProt C7C422: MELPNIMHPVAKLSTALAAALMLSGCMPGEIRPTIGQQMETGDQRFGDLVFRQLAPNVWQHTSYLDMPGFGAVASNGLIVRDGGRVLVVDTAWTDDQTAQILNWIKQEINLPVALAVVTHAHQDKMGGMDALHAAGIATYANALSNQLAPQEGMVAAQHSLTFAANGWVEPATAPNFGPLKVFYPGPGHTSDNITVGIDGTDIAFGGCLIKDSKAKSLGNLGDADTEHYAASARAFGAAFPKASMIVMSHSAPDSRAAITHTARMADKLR

What follows are compounds tested against Metallo-beta-lactamase type 2 (Klebsiella pneumoniae) (UniProt C7C422) (assay: qHTS to identify inhibitors of the New Delhi Metallo-beta-lactamase (NDM): primary screen against the NCATS Gemini Collection). Settings: NDM-1 enzyme, meropenem hydrolysis, absorbance 300 nm; at 38.4 µM (top of the series) unless noted.
Outline: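 Meropenem hydrolysis (50 uM final) by 2 nM NDM-1 read as 300 nm absorbance after 30 min, following >30 min compound–enzyme preincubation in HEPES pH 7.0 with 1 uM ZnSO4 and 0.01% Tween20.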
In the case of `CCOC(=O)c1cccc(NC(=O)C2=CC(C)(C)Oc3ccc(OC)cc32)c1`, the activity % (negative = inhibition) was inactive: 9.7%.
In the case of `Cc1nn(CCO)cc1CN1CCN(C(=O)c2cc[nH]c2)CC(O)C1` (configuration not stated), the activity % (negative = inhibition) was inactive: -5.58%.
With `CS(=O)(=O)N1CCN2C(=O)N(C3CCCCC3)C[C@H]2C1` the activity % (negative = inhibition) was inactive: 1.3% [at 57.5 µM].
For `OC1(Cn2ccnc2)CCN(Cc2ccccc2Cn2cccn2)CC1`, the activity % (negative = inhibition) was inactive: -0.303%.
In the case of `COc1cccc(CN2CCC[C@@H](O)[C@H](NC(=O)c3ccc(OCc4ccccc4)cc3)C2)c1`, the activity % (negative = inhibition) was inactive: -6.3%.
With `O=C1CCN(C(=O)c2ccsc2)CCCC(C(=O)N2CCN(c3ccccn3)CC2)CCN1` (configuration not stated) the activity % (negative = inhibition) was inactive: 0.66%.
`OCc1nnc(C2CC(Nc3ncnc4ccccc34)C2)n1C1CC1` (configuration not stated) was tested, and the activity % (negative = inhibition) was inactive: 6.71%.
`O=C([C@@H]1CCCN1C(=O)Cn1ccc2ccccc2c1=O)N1CCOCC1` was tested, and the activity % (negative = inhibition) was inactive: 9.35%.
In the case of `CN1CCCCCC(O)c2cc(C(=O)N3CCN(c4ccc(F)cc4)CC3)ccc21` (configuration not stated), the activity % (negative = inhibition) was inactive: 7.28%.
With `CN1Cc2ccc(C(=O)Nc3ccc4cn[nH]c4c3)cc2OCC1=O` the activity % (negative = inhibition) was inactive: 26.3% [at 57.5 µM].
In the case of `Cc1ncc(C(=O)N2CCC3(CC(=O)NC3=O)C2)c(-c2ccccc2)n1` (configuration not stated), the activity % (negative = inhibition) was inactive: -4.19%.
In the case of `N[S+](=O)([O-])c1ccc2c(c1)OCCN(Cc1ccccc1Cl)C2`, the activity % (negative = inhibition) was inactive: -4.33% [at 57.5 µM].
For `CC(C)N(Cc1cccc(N2CCN(S(=O)(=O)c3c(Cl)cccc3Cl)CC2)c1F)S(C)(=O)=O`, the activity % (negative = inhibition) was inactive: 13.9%.
With `Cc1noc(C)c1-c1cnc(Nc2ccncc2)c2c1CCO2` the activity % (negative = inhibition) was inactive: 6.5% [at 57.5 µM].
With `Cn1cccc1-c1noc(C2CCN(C(=O)COc3ccc(F)cc3)CC2)n1` the activity % (negative = inhibition) was inactive: 19.1%.
In the case of `O=C(c1nccc2ccccc12)N1CCc2c(nc(-c3ccccc3)[nH]c2=O)C1`, the activity % (negative = inhibition) was inactive: 12%.
For `COc1ccc(C(=O)N2CCCC3(COc4ccccc4C(=O)N3)C2)cc1` (configuration not stated), the activity % (negative = inhibition) was inactive: -0.598%.
In the case of `Cn1cc(CN2CCOC[C@H](Oc3ccc(S(C)(=O)=O)cc3)C2)c2ccccc21`, the activity % (negative = inhibition) was inactive: 39.4% [at 57.5 µM].
For `O=C1N[C@@H]2CCN(C(=O)c3ccc(-c4ccccc4)cc3)[C@@H]2C(=O)N1Cc1ccccc1`, the activity % (negative = inhibition) was inactive: 10.9% [at 57.5 µM].
In the case of `CNC(=O)[C@@H]1C[C@@H](n2cc(CC(C)C)nn2)CN1`, the activity % (negative = inhibition) was inactive: 19.9%.
`CC(=O)N1CCCC(c2[nH]ccc2C(=O)N2CCN(c3ccccc3)CC2)C1` (configuration not stated) was tested, and the activity % (negative = inhibition) was inactive: -6.69%.
`Cc1cnc(N2CC[C@](C)(O)[C@@H](O)C2)nc1N(C)C` was tested, and the activity % (negative = inhibition) was inactive: 23%.
`C=CCN(C)C(=O)C[C@@H]1c2nc(NC(=O)c3ccco3)sc2C[C@@H]2[C@](C)(CO)[C@H](O)CC[C@]21C` was tested, and the activity % (negative = inhibition) was inactive: 20.8%.
In the case of `CCCCNC(=O)[C@H]1CCC[C@H]1NC(=O)c1ccncc1`, the activity % (negative = inhibition) was inactive: -1.57%.
With `Cc1noc(C)c1S(=O)(=O)N1CCC2(CC1)CC1C(=O)NCCN1C2` (configuration not stated) the activity % (negative = inhibition) was inactive: 9.44%.
For `COc1ccc(CNC(=O)C2CCN(Cc3ccccc3-c3ccccc3F)CC2)cc1`, the activity % (negative = inhibition) was inactive: 21.8%.
`CCOc1cccc(CN2CCCC(CNC(=O)c3cccc(OC)c3OC)C2)c1` (configuration not stated) was tested, and the activity % (negative = inhibition) was inactive: -1.76%.
In the case of `O=C(NC1CCN(Cc2cccc(-c3cccs3)c2)CC1)c1cccc(Cl)c1`, the activity % (negative = inhibition) was inactive: 18.9%.
With `COc1ccc(-c2ccccc2NC(=O)C2CCCN(CC=C(C)C)C2)cc1` (configuration not stated) the activity % (negative = inhibition) was inactive: 3.28%.
For `O=C(NCCc1nc2c(s1)CCCC2)C1NCCc2[nH]cnc21` (configuration not stated), the activity % (negative = inhibition) was inactive: 10.2%.
For `Cc1n[nH]c(C)c1C(N)C(=O)N(Cc1cccnc1)Cc1cccnc1` (configuration not stated), the activity % (negative = inhibition) was inactive: 10.3%.
`COc1ccc(Cn2cnc3cccnc32)cc1` was tested, and the activity % (negative = inhibition) was inactive: 59.6% [at 57.5 µM].
In the case of `Cc1ccc(-c2nnc([C@H]3CCN(C(=O)COc4ccccc4)C3)o2)cc1`, the activity % (negative = inhibition) was inactive: 13.2% [at 57.5 µM].
`CN1C[C@H](NC(=O)c2cnccn2)CCC[C@@H](C(=O)N(C)Cc2cccnc2)CC1=O` was tested, and the activity % (negative = inhibition) was inactive: 42.4% [at 57.5 µM].
In the case of `COc1ccc(-c2cc(N3CCCC(NC(=O)c4cccc(C)c4)C3)n[nH]2)cc1` (configuration not stated), the activity % (negative = inhibition) was inactive: 8.29%.
With `CN(Cc1ccccc1C(F)(F)F)C(=O)Nc1ccccc1` the activity % (negative = inhibition) was inactive: -2.22% [at 57.5 µM].
`COc1ccc(OC)c(-c2nc3cc4c(cc3cc2CN2CCCOCC2)OCO4)c1` was tested, and the activity % (negative = inhibition) was inactive: -8.71%.
With `CC1=C[C@@H](CNS(C)(=O)=O)[C@H](C(C)C)C[C@H]1CC(=O)Nc1ccccn1` the activity % (negative = inhibition) was inactive: -0.916% [at 57.5 µM].
In the case of `CN(CCNc1nc(CCN)nc2ccccc12)S(C)(=O)=O`, the activity % (negative = inhibition) was inactive: 3.49%.
`COCC1(CNC(=O)c2nc3ccccc3[nH]2)C[C@@H](O)[C@@H](O)C1` (some centres not stated) was tested, and the activity % (negative = inhibition) was inactive: 36.9% [at 57.5 µM].
`O[C@@H]1C[C@@H](c2nc(-c3ccc4c(c3)OCO4)no2)N(Cc2ccc(-c3ccccn3)cc2)C1` was tested, and the activity % (negative = inhibition) was inactive: 10.3%.
With `COc1ccc(-c2cc(C(=O)N3C[C@@H](CN(C)C)[C@@H](CO)C3)[nH]n2)cc1` the activity % (negative = inhibition) was inactive: -8.26%.
